Measurements from US20070049626A1, “Treating premature ejaculation using gabapentin and pregabalin prodrugs” (priority 2005, published 2007).
Some of these results come from one statement about several compounds together. For at least one compound, name, drawing or mass did not settle the structure.

Test system: PCA-induced ejaculation in anaesthetized rats
Test: p-chloroamphetamine (PCA)-induced ejaculation in anaesthetized rats
Assay type: in vivo, rat
Details: dose-dependent, 1, 3, 10 or 30 mg/kg po, 60 min prior to PCA
Description: For all the sexual behavior tests, the rapid ejaculating Sprague Dawley rats, weighing 350-450 g, are used as an animal model of premature ejaculation (classified as ejaculatory latency <300 s during baseline assessment). Prior to the experiments the animals are housed in groups (2 rats per cage) under controlled 12 h light-dark cycle (lights on at 07:00), constant temperature (23±1° C.), and humidity (55±5%). The animals are given free access to standard food pellets and water.
The compounds are dosed orally by taking the tablets of Examples 1 and 2, finely crushing them and suspending the resulting powder in an aqueous vehicle for oral administration to rats by gavage. Compounds (100) and (101) are tested at 1, 3, 10 or 30 mg/kg po, 60 min prior to PCA administration. Compounds (100) and (101) each dose-dependently increases ejaculatory latency by up to 250%. As a baseline comparison, some of the rats are given a placebo formulation similar to Examples 1 and 2, but containing no prodrug.

Structure (SMILES)	increase of ejaculatory latency
CC(OC(=O)NCC1(CC(=O)O)CCCCC1)OC(=O)C(C)C (stereo not drawn) [Compound (100), 1-{[(α-Isobutanoyloxyethoxy)carbonyl]aminomethyl}-1-Cyclohexane Acetic Acid]	up to 250%
CC(C)CC(CNC(=O)OC(C)OC(=O)C(C)C)CC(=O)O (stereo not drawn) [Compound (101), 3-{[(α-Isobutanoyloxyethoxy)carbonyl]aminomethyl}-5-methyl Hexanoic Acid]	up to 250%
